# Reference: the supplement of paper PMC10849652
# Chains of the proteins cited; added tags and fusions are not shown. Lines headed by an entry give the natural chain unless they say otherwise; changes in a name come on top.
# UniProt Q5R3I4: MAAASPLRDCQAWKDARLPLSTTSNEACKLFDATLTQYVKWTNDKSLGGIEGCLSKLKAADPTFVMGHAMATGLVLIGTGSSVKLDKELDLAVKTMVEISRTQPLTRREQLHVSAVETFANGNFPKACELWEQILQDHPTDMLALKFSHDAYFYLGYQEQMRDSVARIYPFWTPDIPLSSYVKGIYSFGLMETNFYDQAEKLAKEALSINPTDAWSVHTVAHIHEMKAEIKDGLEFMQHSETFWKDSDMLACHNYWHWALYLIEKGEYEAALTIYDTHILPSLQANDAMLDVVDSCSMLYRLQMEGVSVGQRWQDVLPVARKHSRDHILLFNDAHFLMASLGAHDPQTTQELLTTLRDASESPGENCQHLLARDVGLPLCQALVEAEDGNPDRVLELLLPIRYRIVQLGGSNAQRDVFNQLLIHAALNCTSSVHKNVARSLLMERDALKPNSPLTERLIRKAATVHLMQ
# UniProt Q7Z3V4: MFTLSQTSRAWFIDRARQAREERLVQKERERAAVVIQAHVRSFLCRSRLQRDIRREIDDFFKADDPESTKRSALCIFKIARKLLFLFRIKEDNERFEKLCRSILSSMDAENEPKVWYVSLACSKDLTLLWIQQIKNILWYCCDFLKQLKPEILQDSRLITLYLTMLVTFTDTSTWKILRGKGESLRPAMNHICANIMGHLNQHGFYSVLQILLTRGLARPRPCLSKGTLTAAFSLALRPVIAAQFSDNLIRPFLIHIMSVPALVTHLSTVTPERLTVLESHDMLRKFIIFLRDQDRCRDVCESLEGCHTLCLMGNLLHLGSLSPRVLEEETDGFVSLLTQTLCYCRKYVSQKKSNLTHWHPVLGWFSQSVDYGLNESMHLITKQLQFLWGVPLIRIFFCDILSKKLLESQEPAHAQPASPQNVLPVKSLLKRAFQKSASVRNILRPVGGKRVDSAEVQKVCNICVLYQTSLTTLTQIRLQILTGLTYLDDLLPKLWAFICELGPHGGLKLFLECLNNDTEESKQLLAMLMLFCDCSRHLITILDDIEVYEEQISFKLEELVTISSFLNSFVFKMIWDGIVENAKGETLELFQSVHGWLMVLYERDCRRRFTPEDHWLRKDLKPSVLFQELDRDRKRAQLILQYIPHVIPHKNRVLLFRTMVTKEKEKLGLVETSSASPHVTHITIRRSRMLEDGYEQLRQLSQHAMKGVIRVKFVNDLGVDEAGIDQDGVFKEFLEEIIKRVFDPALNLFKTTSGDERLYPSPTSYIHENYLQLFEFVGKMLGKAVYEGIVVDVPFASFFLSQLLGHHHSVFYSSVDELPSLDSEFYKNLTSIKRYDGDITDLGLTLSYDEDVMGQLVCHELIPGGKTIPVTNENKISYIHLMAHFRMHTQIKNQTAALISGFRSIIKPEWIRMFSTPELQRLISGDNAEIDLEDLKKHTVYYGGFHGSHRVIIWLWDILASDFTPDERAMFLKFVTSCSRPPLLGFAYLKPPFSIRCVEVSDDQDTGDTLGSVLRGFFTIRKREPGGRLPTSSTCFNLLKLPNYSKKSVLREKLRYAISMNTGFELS
# UniProt O60637: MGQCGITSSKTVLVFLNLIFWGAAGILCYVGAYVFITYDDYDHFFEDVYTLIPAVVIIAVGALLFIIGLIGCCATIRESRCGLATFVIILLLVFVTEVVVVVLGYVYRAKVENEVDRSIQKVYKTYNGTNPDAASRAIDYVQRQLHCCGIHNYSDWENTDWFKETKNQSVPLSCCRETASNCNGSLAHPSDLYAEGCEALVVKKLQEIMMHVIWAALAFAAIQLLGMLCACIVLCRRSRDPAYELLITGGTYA
# UniProt Q01081: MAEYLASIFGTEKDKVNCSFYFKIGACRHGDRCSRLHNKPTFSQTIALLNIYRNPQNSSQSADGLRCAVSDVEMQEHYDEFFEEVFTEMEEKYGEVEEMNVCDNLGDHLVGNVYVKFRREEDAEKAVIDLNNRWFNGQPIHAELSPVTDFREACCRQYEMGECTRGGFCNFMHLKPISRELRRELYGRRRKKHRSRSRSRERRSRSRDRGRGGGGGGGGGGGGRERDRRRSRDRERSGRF
# Some of the results follow.
# Columns and labels:
# Assay in all cases: log2 fold change, soluble protein after heating vs DMSO (PISA); higher = thermal stabilisation; K562 cells, 10 uM, 30 min; active = over 0.2 and 3.5 SD of the protein, either way, in both replicates (recomputed)
# [1] = compound: CS(=O)(=O)c1ccc(-c2cnc(N)c(C(=O)Nc3ccccc3)n2)cc1
# How it was run: (§1)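 Soluble protein was quantified by TMTpro 16plex LC-MS/MS after channel sums were equalised. It was obtained as the supernatant after 21,000xg for 90 min from pooled aliquots of K562 cells (2×10^6 cells/mL, 10 μM compound, 30 min) heated for 3 min across 48°C-58°C and extracted in PBS with 0.5% NP-40 at 4°C. Thermal stability values are relative to control samples and come from duplicates. They are given as log2 fold changes.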
# [2] = compound: C[C@@H](Oc1cc(-c2cnn(C3CCNCC3)c2)cnc1N)c1c(Cl)ccc(F)c1Cl [crizotinib]
# How it was run: as §1
# [3] = compound: C[C@@H]1COCCN1C2=NC(=NC(=C2)C3(CC3)S(=O)(=O)C)C4=C5C=CNC5=CC=C4
# How it was run: as §1
# [4] = compound: C[C@H](C1=CC=C(C=C1)C(=O)NC2=C3C=CNC3=NC=C2)N
# How it was run: as §1
# [5] = compound: Cc1cc(Nc2cc(CN3CCOCC3)c3nc(C)c(Cc4ccc(Cl)cc4F)n3n2)n[nH]1 [gandotinib]
# How it was run: as §1
# [6] = compound: Cc1cc(SCc2sc(-c3ccc(C(F)(F)F)cc3)nc2C)ccc1OCC(=O)O
# How it was run: as §1
# [7] = compound: Cc1ccc(-n2nc(C(C)(C)C)cc2NC(=O)Nc2ccc(OCCN3CCOCC3)c3ccccc23)cc1 [doramapimod]
# How it was run: as §1
# [8] = compound: Cc1ccc(C(=O)N(CCCN)[C@@H](c2nc3cc(Cl)ccc3c(=O)n2Cc2ccccc2)C(C)C)cc1 [ispinesib]
# How it was run: as §1
# [9] = compound: Cc1ccc(NC(=O)c2ccc(CN3CC[C@H](N(C)C)C3)c(C(F)(F)F)c2)cc1Nc1nccc(-c2cncnc2)n1 [bafetinib]
# How it was run: as §1
# [10] = compound: Cc1cccc(CC(=O)N2CCc3c2ccc(-c2cn(C)c4ncnc(N)c24)c3F)n1
# How it was run: as §1
# [11] = compound: Cc1cn(-c2cc(NC(=O)c3ccc(C)c(Nc4nccc(-c5cccnc5)n4)c3)cc(C(F)(F)F)c2)cn1 [nilotinib]
# How it was run: as §1
# [12] = compound: Cc1nc(Nc2n[nH]c3c2CN(C(=O)N[C@H](CN(C)C)c2ccccc2)C3(C)C)c2sccc2n1
# How it was run: as §1
# [13] = compound: Cc1nc(Nc2ncc(C(=O)Nc3c(C)cccc3Cl)s2)cc(N2CCN(CCO)CC2)n1 [dasatinib]
# How it was run: as §1
# [14] = compound: Cc1ncc(-c2ccnc(Nc3ccc(S(C)(=O)=O)cc3)n2)n1C(C)C
# How it was run: as §1
# [15] = compound: Cn1cc(-c2ccc3c(c2)CCN3C(=O)Cc2cccc(C(F)(F)F)c2)c2c(N)ncnc21
# How it was run: as §1
# [16] = compound: Cn1cc(-c2ccc3nnc(C(F)(F)c4ccc5ncccc5c4)n3n2)cn1
# How it was run: as §1
# [17] = compound: Cn1cncc1[C@@](N)(c1ccc(Cl)cc1)c1ccc2c(c1)c(-c1cccc(Cl)c1)cc(=O)n2C [tipifarnib]
# How it was run: as §1
# [18] = compound: FC(F)(F)c1ccc(/C=C/c2nc(COc3ccc(CCCCn4ccnn4)cc3)co2)cc1 [mubritinib]
# How it was run: as §1
# [19] = compound: C[C@H](Nc1ncnc2nc[nH]c12)c1cc2cccc(Cl)c2c(=O)n1-c1ccccc1 [duvelisib]
# How it was run: as §1
# [20] = compound: Cc1cc(Nc2cc(N3CCN(C)CC3)nc(Sc3ccc(NC(=O)C4CC4)cc3)n2)n[nH]1 [tozasertib]
# How it was run: as §1
Target,log2 fold change [1],log2 fold change [2],log2 fold change [3],log2 fold change [4],log2 fold change [5],log2 fold change [6],log2 fold change [7],log2 fold change [8],log2 fold change [9],log2 fold change [10],log2 fold change [11],log2 fold change [12],log2 fold change [13],log2 fold change [14],log2 fold change [15],log2 fold change [16],log2 fold change [17],log2 fold change [18],log2 fold change [19],log2 fold change [20]
TTC38 (UniProt Q5R3I4),inactive: -0.055,inactive: -0.085,inactive: -0.085,inactive: -0.073,inactive: -0.031,inactive: 0.063,active: 0.73,inactive: 0.06,inactive: -0.012,inactive: 0.021,inactive: 0.038,inactive: 0.034,inactive: 0.024,inactive: -0.04,inactive: 0.071,inactive: -0.021,inactive: 0.05,inactive: 0.322,–,–
UBE3B (UniProt Q7Z3V4),inactive: 0.106,inactive: -0.133,inactive: 0.254,inactive: -0.108,–,inactive: 0.021,inactive: -0.055,inactive: 0.178,inactive: -0.134,–,inactive: 0.072,inactive: 0.03,inactive: -0.028,inactive: 0.116,inactive: -0.062,inactive: 0.103,inactive: -0.112,–,–,–
TSPAN3 (UniProt O60637),inactive: 0.018,inactive: -0.051,–,inactive: 0.13,–,inactive: 0.062,inactive: 0.089,inactive: -0.266,inactive: -0.09,–,inactive: 0.05,inactive: 0.006,inactive: -0.044,inactive: 0.009,inactive: 0.098,inactive: 0.123,inactive: 0.085,inactive: 0.03,inactive: 0.045,inactive: -0.156
U2AF1 isoform 2 (UniProt Q01081),inactive: -0.046,inactive: 0.067,inactive: 0.03,inactive: -0.134,inactive: -0.005,inactive: 0.114,inactive: -0.143,inactive: 0,inactive: 0.037,inactive: -0.06,inactive: -0.017,active: -1.31,inactive: -0.056,inactive: 0.058,inactive: 0.01,inactive: -0.06,inactive: 0.034,inactive: -0.099,–,–
